Experimental data from patent US20100041694A1, “AGRICULTURAL COMPOSITION FOR CONTROLLING OR PREVENTING PLANT DISEASES CAUSED BY PLANT PATHOGENIC MICROBES” (Sumitomo Chemical Company, Limited, priority 2007, published 2010).
Some of these results come from one statement about several compounds together.

Assays:
Format in all cases: in vivo
[1] = system: Verticillium albo-atrum, V. dahliae, V. nigrescens; experiment: Potato blue stem, soil irrigation treatment; details: potato (Danshaku) in contaminated soil, 10 mg compound per pot by soil irrigation, 2 months
Fusarium oxysporum = experiment: Preventing infection by tomato wilt by soil treatment (irrigation); details: tomato (Patio) in contaminated soil, 10 mg compound per pot by soil irrigation, 1 month
Sclerotinia sclerotiorum = experiment: Preventing infection by cucumber Sclerotinia rot, foliage application; details: cucumber (Sagami-Hanjiro), flowable formulation 500 ppm foliage application, then inoculation; 18° C. high humidity 4 days
Gaeumannomyces graminis = experiment: Malt damping off, seed treatment; details: contaminated malt seeds, seed treatment 200 g compound per 100 kg seeds, 1 month
Gibberella fujikuroi = experiment: Rice bakanae disease, seed treatment; details: contaminated unhulled rice, seed treatment 200 g compound per 100 kg seeds, 1 month

| Structure (SMILES) | blotches in treated plants [1] | growth of treated plants [1] | blotches in treated plants (Fusarium oxysporum) | growth of treated plants (Fusarium oxysporum) | infected areas of treated plants relative to infected areas of untreated plants (Sclerotinia sclerotiorum) [%] | growth of treated plants (Gaeumannomyces graminis) | growth of treated plants (Gibberella fujikuroi) |
| --- | --- | --- | --- | --- | --- | --- | --- |
| O=C(NCc1cccc(Oc2ccccc2)c1)c1cc2cccnc2cc1F [Compound 85] | no blotches are found | favorably grow at a level equivalent to that of plants that grow in noncontaminated soil | no blotches are found | favorably grow at a level equivalent to that of plants that grow have in noncontaminated soil | ≤ 10 | favorably grow at a level equivalent to that of plants that grow from noncontaminated seeds | favorably grow at a level equivalent to that of plants that have grown from noncontaminated unhulled rice |
| O=C(NCc1ccc(OCc2ccccc2)cc1)c1cc2cccnc2cc1F [Compound 86] | no blotches are found | favorably grow at a level equivalent to that of plants that grow in noncontaminated soil | no blotches are found | favorably grow at a level equivalent to that of plants that grow have in noncontaminated soil | ≤ 10 | favorably grow at a level equivalent to that of plants that grow from noncontaminated seeds | favorably grow at a level equivalent to that of plants that have grown from noncontaminated unhulled rice |
| COc1ccc(Oc2cccc(CNC(=O)c3ccc4ncccc4c3)c2)cc1 [Compound 88] | no blotches are found | favorably grow at a level equivalent to that of plants that grow in noncontaminated soil | no blotches are found | favorably grow at a level equivalent to that of plants that grow have in noncontaminated soil | ≤ 10 | favorably grow at a level equivalent to that of plants that grow from noncontaminated seeds | favorably grow at a level equivalent to that of plants that have grown from noncontaminated unhulled rice |
| O=C(NCc1ccc(COc2ccc(F)cc2F)cc1)c1ccc2ncccc2c1 [Compound 89] | no blotches are found | favorably grow at a level equivalent to that of plants that grow in noncontaminated soil | no blotches are found | favorably grow at a level equivalent to that of plants that grow have in noncontaminated soil | ≤ 10 | favorably grow at a level equivalent to that of plants that grow from noncontaminated seeds | favorably grow at a level equivalent to that of plants that have grown from noncontaminated unhulled rice |
| Cc1ccc2cc(C(=O)NCc3cccc(Oc4ccccc4)c3)ccc2n1 [Compound 92] | no blotches are found | favorably grow at a level equivalent to that of plants that grow in noncontaminated soil | no blotches are found | favorably grow at a level equivalent to that of plants that grow have in noncontaminated soil | ≤ 30 | favorably grow at a level equivalent to that of plants that grow from noncontaminated seeds | favorably grow at a level equivalent to that of plants that have grown from noncontaminated unhulled rice |
